Reference: article PMC5143404
Results are given in words; binding and its absence hold for the method and conditions named. Binding seen in cells or lysates may run through a third protein. Some binding calls cover weakened binding; strength is not graded here. Each block holds one molecule with its values, some of them ahead of it.

The chains behind the UniProt entries cited, without tags or fusion partners.
UniProt Q92736: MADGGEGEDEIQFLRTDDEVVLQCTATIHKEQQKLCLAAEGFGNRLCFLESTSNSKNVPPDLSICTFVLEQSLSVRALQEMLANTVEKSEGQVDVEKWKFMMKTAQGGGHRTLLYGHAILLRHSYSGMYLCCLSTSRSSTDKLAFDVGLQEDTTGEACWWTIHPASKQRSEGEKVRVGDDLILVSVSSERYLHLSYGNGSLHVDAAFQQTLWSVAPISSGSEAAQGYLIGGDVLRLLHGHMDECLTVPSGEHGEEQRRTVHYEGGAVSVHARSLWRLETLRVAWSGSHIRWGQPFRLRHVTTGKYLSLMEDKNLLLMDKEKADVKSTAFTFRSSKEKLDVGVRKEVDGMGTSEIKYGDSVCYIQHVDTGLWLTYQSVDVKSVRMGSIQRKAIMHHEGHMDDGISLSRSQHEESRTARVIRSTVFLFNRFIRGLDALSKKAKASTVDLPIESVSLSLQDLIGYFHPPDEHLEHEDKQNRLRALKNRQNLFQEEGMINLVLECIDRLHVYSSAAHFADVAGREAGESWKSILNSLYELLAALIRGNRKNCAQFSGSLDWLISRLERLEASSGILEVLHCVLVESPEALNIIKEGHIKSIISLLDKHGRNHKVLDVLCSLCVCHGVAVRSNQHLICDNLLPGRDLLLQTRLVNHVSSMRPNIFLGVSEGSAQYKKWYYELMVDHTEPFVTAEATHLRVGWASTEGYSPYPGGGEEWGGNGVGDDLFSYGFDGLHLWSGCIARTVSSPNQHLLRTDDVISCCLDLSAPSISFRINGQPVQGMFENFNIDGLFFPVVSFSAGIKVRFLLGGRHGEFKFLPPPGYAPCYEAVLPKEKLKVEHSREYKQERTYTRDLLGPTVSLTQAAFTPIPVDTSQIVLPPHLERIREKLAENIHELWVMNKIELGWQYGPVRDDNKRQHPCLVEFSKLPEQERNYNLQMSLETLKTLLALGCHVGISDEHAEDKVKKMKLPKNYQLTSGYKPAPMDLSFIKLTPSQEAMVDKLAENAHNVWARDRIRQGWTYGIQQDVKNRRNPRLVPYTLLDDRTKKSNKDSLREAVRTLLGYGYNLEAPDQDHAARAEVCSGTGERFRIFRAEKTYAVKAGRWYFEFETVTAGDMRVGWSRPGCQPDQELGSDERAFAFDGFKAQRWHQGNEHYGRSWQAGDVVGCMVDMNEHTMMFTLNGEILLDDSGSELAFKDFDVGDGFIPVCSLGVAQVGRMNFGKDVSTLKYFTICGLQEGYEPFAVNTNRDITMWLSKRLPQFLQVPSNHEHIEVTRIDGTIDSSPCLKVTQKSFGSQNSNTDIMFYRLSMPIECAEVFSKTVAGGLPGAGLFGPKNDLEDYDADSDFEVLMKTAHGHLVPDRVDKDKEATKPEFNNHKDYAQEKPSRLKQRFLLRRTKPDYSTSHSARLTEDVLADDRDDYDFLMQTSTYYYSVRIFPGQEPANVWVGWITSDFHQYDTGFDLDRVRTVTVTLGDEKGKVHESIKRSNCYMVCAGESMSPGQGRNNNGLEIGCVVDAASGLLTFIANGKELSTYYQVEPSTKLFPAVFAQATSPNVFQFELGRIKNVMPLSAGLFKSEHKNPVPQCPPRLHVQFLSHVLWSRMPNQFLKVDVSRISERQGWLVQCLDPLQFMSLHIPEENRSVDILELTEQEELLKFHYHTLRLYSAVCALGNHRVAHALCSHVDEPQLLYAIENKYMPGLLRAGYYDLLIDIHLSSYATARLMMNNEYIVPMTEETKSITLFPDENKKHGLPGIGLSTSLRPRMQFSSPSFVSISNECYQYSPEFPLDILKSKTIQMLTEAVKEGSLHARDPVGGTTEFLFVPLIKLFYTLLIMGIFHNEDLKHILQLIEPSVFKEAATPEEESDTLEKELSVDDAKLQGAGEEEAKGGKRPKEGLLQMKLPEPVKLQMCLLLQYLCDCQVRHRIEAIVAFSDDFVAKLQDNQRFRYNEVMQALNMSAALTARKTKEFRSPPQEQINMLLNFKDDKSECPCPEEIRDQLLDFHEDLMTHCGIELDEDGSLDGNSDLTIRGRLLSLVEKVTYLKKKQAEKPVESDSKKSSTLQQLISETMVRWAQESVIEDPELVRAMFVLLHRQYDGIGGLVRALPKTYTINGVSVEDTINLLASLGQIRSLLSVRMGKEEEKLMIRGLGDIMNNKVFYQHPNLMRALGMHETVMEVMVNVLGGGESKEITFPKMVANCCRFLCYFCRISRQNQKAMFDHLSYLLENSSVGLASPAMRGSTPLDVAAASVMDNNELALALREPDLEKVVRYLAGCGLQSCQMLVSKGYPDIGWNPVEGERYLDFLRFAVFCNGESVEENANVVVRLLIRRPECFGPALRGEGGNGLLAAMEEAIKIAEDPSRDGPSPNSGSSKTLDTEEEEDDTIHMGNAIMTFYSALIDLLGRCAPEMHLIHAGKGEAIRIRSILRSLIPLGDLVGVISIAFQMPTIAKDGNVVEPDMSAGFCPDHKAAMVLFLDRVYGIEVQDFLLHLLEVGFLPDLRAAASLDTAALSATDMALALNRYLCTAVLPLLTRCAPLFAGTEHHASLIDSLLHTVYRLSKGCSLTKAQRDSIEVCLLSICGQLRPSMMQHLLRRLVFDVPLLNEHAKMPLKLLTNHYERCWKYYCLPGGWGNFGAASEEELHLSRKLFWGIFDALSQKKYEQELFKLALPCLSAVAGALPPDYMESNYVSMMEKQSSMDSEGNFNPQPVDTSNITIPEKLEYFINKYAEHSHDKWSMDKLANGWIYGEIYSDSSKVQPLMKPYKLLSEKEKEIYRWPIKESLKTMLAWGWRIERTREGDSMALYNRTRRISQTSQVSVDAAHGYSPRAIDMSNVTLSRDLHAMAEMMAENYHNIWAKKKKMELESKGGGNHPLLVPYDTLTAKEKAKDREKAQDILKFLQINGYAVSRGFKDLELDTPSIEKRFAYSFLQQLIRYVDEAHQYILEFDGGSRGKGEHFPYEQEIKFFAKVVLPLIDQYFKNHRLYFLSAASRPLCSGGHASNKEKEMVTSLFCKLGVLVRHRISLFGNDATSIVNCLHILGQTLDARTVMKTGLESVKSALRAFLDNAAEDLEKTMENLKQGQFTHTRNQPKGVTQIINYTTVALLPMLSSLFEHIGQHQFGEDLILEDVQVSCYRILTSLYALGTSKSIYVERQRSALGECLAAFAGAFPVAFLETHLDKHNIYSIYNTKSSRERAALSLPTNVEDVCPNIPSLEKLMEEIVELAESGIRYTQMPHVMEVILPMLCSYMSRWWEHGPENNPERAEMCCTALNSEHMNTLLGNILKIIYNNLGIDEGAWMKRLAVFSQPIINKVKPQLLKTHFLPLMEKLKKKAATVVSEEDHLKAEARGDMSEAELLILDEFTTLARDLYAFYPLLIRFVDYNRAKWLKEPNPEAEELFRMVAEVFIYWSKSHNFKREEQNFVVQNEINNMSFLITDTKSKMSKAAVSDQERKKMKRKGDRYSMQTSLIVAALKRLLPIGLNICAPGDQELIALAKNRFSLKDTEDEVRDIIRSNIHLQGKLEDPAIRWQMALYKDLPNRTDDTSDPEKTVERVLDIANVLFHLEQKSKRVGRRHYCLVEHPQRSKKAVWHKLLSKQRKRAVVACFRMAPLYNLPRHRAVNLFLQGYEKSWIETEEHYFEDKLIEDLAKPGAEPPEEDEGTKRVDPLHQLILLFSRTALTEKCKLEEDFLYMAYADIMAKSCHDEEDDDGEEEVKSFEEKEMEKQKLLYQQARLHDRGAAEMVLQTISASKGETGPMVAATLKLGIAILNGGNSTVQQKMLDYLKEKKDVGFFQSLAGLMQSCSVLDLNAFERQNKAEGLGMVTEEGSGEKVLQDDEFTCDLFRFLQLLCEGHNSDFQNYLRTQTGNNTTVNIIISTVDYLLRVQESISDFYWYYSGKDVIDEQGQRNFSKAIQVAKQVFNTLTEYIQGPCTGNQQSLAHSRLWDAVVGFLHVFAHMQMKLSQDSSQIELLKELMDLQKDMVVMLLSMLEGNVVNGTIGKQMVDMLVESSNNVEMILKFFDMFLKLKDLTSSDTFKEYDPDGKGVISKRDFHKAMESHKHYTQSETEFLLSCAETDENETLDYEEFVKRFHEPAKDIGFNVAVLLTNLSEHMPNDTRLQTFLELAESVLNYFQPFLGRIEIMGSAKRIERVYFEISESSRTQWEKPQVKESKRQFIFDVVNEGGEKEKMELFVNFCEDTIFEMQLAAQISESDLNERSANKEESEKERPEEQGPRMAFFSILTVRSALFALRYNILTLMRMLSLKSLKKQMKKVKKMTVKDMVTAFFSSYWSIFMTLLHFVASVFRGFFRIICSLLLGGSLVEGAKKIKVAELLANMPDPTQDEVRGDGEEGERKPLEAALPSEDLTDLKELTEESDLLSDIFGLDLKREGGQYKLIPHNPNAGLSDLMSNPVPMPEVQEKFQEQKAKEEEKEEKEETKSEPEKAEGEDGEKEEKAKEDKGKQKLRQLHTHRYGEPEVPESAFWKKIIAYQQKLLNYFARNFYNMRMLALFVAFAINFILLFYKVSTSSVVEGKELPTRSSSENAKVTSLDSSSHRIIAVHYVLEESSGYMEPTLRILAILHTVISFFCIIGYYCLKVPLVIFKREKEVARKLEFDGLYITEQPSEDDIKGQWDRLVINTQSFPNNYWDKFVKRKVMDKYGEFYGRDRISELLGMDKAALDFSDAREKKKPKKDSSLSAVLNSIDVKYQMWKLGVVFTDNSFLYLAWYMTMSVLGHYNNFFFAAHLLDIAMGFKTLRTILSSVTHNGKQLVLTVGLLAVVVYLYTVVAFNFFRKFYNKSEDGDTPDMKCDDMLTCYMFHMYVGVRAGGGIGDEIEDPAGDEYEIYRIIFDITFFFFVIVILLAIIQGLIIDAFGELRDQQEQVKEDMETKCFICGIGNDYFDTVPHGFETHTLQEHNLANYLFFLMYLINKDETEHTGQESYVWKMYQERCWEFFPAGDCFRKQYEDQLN

How the values were obtained:
[1] = molecular target: T1, junctophilin 3 (human) (human (endogenous in pancreatic tissue)) (UniProt Q8WXH2); assay: co-IP; human pancreatic tissue (n=3); precipitated with anti-RyR2 or anti-JPH3 antibodies, coimmunoprecipitates analysed by immunoblotting with anti-JPH3 or anti-RyR1, 2, 3 antibodies
T1 sequence: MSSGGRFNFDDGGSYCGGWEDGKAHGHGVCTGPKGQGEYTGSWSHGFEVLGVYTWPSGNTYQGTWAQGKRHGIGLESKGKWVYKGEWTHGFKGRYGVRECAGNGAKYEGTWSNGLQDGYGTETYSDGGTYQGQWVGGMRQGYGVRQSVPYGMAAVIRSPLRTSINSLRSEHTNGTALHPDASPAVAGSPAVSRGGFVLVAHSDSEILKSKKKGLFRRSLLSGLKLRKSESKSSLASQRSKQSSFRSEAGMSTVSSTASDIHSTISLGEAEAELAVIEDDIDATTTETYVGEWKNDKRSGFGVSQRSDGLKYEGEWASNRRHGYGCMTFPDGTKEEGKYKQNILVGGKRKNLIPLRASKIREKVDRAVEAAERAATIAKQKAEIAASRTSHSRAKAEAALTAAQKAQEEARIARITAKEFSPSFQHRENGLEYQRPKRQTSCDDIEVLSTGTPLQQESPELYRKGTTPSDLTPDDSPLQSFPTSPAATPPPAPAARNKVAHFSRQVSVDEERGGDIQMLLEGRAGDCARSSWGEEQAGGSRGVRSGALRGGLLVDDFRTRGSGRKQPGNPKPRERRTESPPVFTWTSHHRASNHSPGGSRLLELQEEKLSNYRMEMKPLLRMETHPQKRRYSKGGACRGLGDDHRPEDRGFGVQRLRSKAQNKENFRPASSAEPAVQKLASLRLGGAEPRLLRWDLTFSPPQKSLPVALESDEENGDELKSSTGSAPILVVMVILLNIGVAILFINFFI

[2] = molecular target: type 2 ryanodine receptor (human) (human (endogenous in pancreatic tissue)) (UniProt Q92736); assay: as above
[3] = molecular target: type 2 ryanodine receptor (mouse) (mouse (endogenous in pancreatic tissue)) (UniProt E9Q401); assay: co-IP; mouse pancreatic tissue (n=5); precipitated with anti-RyR2 or anti-JPH3 antibodies, coimmunoprecipitates analysed by immunoblotting with anti-JPH3 or anti-RyR1, 2, 3 antibodies

binding [1]: binds
Molecule: type 2 ryanodine receptor (human) (from UniProt Q92736 1-4967)

binding [2]: binds
B1: junctophilin 3 (human) (protein, UniProt Q8WXH2 1-748)
chain: MSSGGRFNFDDGGSYCGGWEDGKAHGHGVCTGPKGQGEYTGSWSHGFEVLGVYTWPSGNTYQGTWAQGKRHGIGLESKGKWVYKGEWTHGFKGRYGVRECAGNGAKYEGTWSNGLQDGYGTETYSDGGTYQGQWVGGMRQGYGVRQSVPYGMAAVIRSPLRTSINSLRSEHTNGTALHPDASPAVAGSPAVSRGGFVLVAHSDSEILKSKKKGLFRRSLLSGLKLRKSESKSSLASQRSKQSSFRSEAGMSTVSSTASDIHSTISLGEAEAELAVIEDDIDATTTETYVGEWKNDKRSGFGVSQRSDGLKYEGEWASNRRHGYGCMTFPDGTKEEGKYKQNILVGGKRKNLIPLRASKIREKVDRAVEAAERAATIAKQKAEIAASRTSHSRAKAEAALTAAQKAQEEARIARITAKEFSPSFQHRENGLEYQRPKRQTSCDDIEVLSTGTPLQQESPELYRKGTTPSDLTPDDSPLQSFPTSPAATPPPAPAARNKVAHFSRQVSVDEERGGDIQMLLEGRAGDCARSSWGEEQAGGSRGVRSGALRGGLLVDDFRTRGSGRKQPGNPKPRERRTESPPVFTWTSHHRASNHSPGGSRLLELQEEKLSNYRMEMKPLLRMETHPQKRRYSKGGACRGLGDDHRPEDRGFGVQRLRSKAQNKENFRPASSAEPAVQKLASLRLGGAEPRLLRWDLTFSPPQKSLPVALESDEENGDELKSSTGSAPILVVMVILLNIGVAILFINFFI

binding [3]: binds
B2: junctophilin 3 (mouse) (protein, UniProt Q9ET77 1-744)
chain: MSSGGRFNFDDGGSYCGGWEDGKAHGHGVCTGPKGQGEYTGSWSHGFEVLGVYTWPSGNTYQGTWAQGKRHGIGLESKGKWVYKGEWTHGFKGRYGVRECTGNGAKYEGTWSNGLQDGYGTETYSDGGTYQGQWVGGMRQGYGVRQSVPYGMAAVIRSPLRTSINSLRSEHTNGAALHPDASPAVAGSPAVSRGGFVLVAHSDSEILKSKKKGLFRRSLLSGLKLRKSESKSSLASQRSKQSSFRSEAGMSTVSSTASDIHSTISLGEAEAELAVIEDDIDATTTETYVGEWKNDKRSGFGVSQRSDGLKYEGEWVSNRRHGYGCMTFPDGTKEEGKYKQNVLVSGKRKNLIPLRASKIREKVDRAVEAAERAATIAKQKAEIAASRTSHSRAKAEAALTAAQKAQEEARIARITAKEFSPSFQHRENGLEYQRPKHQMSCDDIEVLSTGTPLQQESPELYRKGTTPSDLTPDDSPLQSFPASPTSTPPPAPASRTKMAHFSRQVSVDEERSGDIQMLLEGRGGDYARNSWGEEKAGASRGIRSGALRSGQPTEDFRTRGSGHKQPGNPKPRERRTESPTTFSWTSHHRAGNPCSGGPKLLEPDEEQLSNYKLEMKPLLRMDACPQDTHPQRRRHSRGAGGDRGFGLQRLRSKSQNKENLRPASSAEPTVQKLESLRLGDRPEPRLLRWDLTFSPPQKSLPVALESDEETGDELKSSTGSAPILVVMVILLNIGVAILFINFFI
